From US8071548B2, “Method of reducing injury to mammalian cells” (Nono, Inc., priority 2002, dated 2011)
Part of at least one peptide drawing is inferred or uncertain, most often the ends. No end group written: not given here.

Chains of the proteins cited; added tags and fusions are not shown.
UniProt P31016, whole entry: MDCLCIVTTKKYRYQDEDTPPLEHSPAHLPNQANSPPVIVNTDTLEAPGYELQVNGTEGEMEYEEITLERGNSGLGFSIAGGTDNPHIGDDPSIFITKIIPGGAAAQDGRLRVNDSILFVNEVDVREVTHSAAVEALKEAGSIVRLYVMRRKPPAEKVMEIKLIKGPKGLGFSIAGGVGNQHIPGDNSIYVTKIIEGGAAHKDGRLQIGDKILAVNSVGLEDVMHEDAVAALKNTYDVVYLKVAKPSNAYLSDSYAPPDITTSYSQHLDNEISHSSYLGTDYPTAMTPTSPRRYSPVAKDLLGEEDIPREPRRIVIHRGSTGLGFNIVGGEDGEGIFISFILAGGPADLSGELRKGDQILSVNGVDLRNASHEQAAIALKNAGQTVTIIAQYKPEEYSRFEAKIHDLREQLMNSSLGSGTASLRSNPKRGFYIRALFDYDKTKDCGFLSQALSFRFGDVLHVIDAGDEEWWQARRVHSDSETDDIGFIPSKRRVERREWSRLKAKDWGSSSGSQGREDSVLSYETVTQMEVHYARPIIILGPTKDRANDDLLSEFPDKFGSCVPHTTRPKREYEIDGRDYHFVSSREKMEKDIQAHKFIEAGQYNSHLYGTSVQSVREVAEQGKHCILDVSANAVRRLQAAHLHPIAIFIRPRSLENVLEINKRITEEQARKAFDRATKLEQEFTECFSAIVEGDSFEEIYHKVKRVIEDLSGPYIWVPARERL

Tests used:
NMDARs = assay: Whole cell patch-clamp recordings of NMDA currents in cultured neurons; format: cell-based, mouse; conditions: intracellular dialysis of 1 mM peptide
PSD-95 = PSD-95 (Rattus norvegicus, UniProt P31016); conditions: cited from earlier work

Sequence: KLSSIESDV [NR2B9c]
- effect on NMDA currents over 30 min (NMDARs): had no effect
- peak NMDA current amplitudes (NMDARs; 300 μM NMDA): 2660±257 pA
- binding of PSD-95 to GST-NR2B fusion proteins (PSD-95; 0.5 mM): competitively inhibited
- association of PSD-95 with NR2 subunits and with Kv1.4 channels (PSD-95): prevents the association
- binding activity of full-length recombinant PSD-95 protein to MAP1A (PSD-95): increases the binding activity
